From PubChem BioAssay AID493014 (National Center for Advancing Translational Sciences (NCATS), 2011)
The other results are listed elsewhere or left out. These are further read-outs of the screen, such as a control signal, another cell line or another target. No call is given for them. The list favours compounds with an active or inconclusive main result. Words in brackets tell the shape of the fitted curve; partial curves, single points and poor fits give uncertain potencies.

Experiment: qHTS Assay to Find Inhibitors of Chronic Active B-Cell Receptor Signaling
Conditions: ABC-DLBCL IkBa-CBG/CBR reporter, luminescence ratio (green luciferase fused to IkBa over red control in TMD8 lymphoma cells), 4 h
Method in brief: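 Doxycycline induced both beetle luciferases in TMD8 lymphoma cells; IKK-driven degradation limits the IkappaBalpha-fused green signal, while red luminescence normalises for cell number and nonspecific effects. Compounds tested up to 46 uM, 4 hrs.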

[1] = measured here: CBR red luminescence, cell number
[2] = measured here: IkBa-CBG green luminescence

| SMILES | AC50 [1] | AC50 [2] |
| --- | --- | --- |
| Cc1ccc(CC(=O)CCc2ccccc2)cc1 | 2.59 µM [rising, full curve, poor fit] |  |
| CCOC(=O)[C@@H]1[C@H]2COc3ccccc3[C@H]2N2C(=O)N(c3cccc(F)c3)C(=O)[C@]12C | 7.08 µM [falling, partial curve] |  |
| Cc1ccc(Sc2cnn(-c3ccccc3)c(=O)c2Cl)cc1 | 11.2 µM [falling, partial curve, poor fit] |  |
| CN1CCN(C(=S)c2ccc(-c3cc(Cl)ccc3Cl)o2)CC1 | 3.98 µM [falling, partial curve, poor fit] |  |
| CCOC(=O)CSC(=S)NC(=O)c1ccc(OC)cc1 | 0.92 µM [rising, full curve, poor fit] |  |
| Cc1ccccc1NC(=O)c1cnn(-c2ccccc2)c1C | 5.01 µM [falling, partial curve] |  |
| Cc1ccc(NC(=O)Nc2cccc(C)n2)cc1 | 0.794 µM [rising, partial curve, poor fit] |  |
| O=S(=O)(Nc1nc2ccccc2nc1Cl)c1ccc(Cl)cc1 | 1.84 µM [rising, partial curve, poor fit] |  |
| Cc1ccc(NC(=O)c2ccccc2-c2ccccc2C(=O)O)cc1C | 35.5 µM [rising, single point] |  |
| C/C(=N\NC(=O)C1=NNC(=O)C1C)c1cccs1 (stereo not given) | 12.6 µM [falling, partial curve] |  |
| CNC(C)C#Cc1ccc2oc3cccc(OC)c3c(=O)c2c1 (stereo not given) | 0.891 µM [rising, partial curve] | 1.26 µM [rising, partial curve, poor fit] |
| CC1(C)CC(=O)C(C(=O)CCCCC(=O)C2C(=O)CC(C)(C)CC2=O)C(=O)C1 | 6.51 µM [rising, single point] |  |
| Cc1ccccc1N1CCN(C2CCCN(C(=O)CCc3c(C)noc3C)C2)CC1 (stereo not given) | 35.5 µM [falling, single point] |  |
| COc1ccccc1C(=O)Nc1ccc(C(=O)O)cc1 | 1.84 µM [falling, full curve] |  |
| O=C(N/N=C/c1cc2cc3c(cc2nc1Cl)OCCO3)c1ccccc1O | 8.2 µM [falling, partial curve] |  |
| Cc1ccc(SCCSc2nc(N)cc(=O)[nH]2)cc1 | 11.2 µM [rising, partial curve] |  |
| COc1ccc(CCNC(=O)CCNS(=O)(=O)c2ccc3c(c2)CCN3C(C)=O)cc1OC | 3.66 µM [rising, full curve, poor fit] |  |
| CC(C)=CCN1CCN(Cc2cnc(N3CCOCC3)s2)CC1CCO (stereo not given) | 0.316 µM [rising, full curve, poor fit] |  |
| CC(=O)/C(N=Nc1ccc2c(c1)OCCO2)=C(\C)O | 6.31 µM [falling, partial curve, poor fit] |  |
| C=CCCC(=O)NC1CC(C)(C)Cc2c1cnn2-c1cccc(F)c1 (stereo not given) | 35.5 µM [rising, single point] |  |
| Cn1c(SCC(=O)N(C2CCCCC2)C2CCCCC2)nnc1-c1cccs1 | 0.0082 µM [falling, full curve, poor fit] |  |
| CCn1c2ccc(F)cc2c2nc3ccccc3nc21 | 35.5 µM [falling, partial curve, poor fit] |  |

3 neighbouring entries already listed, for reference:

| SMILES | AC50 [1] | AC50 [2] |
| --- | --- | --- |
| C=CCCC(=O)NC1CC(C)(C)Cc2c1cnn2-c1cccc(F)c1 (stereo not given) | 35.5 µM [rising, single point] |  |
| Cn1c(SCC(=O)N(C2CCCCC2)C2CCCCC2)nnc1-c1cccs1 | 0.0082 µM [falling, full curve, poor fit] |  |
| CCn1c2ccc(F)cc2c2nc3ccccc3nc21 | 35.5 µM [falling, partial curve, poor fit] |  |

Continuation.

| SMILES | AC50 [1] | AC50 [2] |
| --- | --- | --- |
| Cc1ccc(NC(=O)c2oc3ccc(S(=O)(=O)N4CCCCCC4)cc3c2C)c(C)c1 | 35.5 µM [rising, single point] |  |
| COc1ccc(N2CCN(C(=O)c3cc4c(C)nc5ccccc5c4o3)CC2)cc1 | 12.6 µM [falling, partial curve] |  |
| CC(C)(C)C(=O)N(Cc1ccccc1)c1ccccn1 | 15.8 µM [rising, partial curve, poor fit] |  |
| COc1ccccc1NC(=O)C1CCCN(S(=O)(=O)c2cnc[nH]2)C1 (stereo not given) | 6.51 µM [falling, partial curve, poor fit] |  |
| Cc1ccc(C)c(SCC(=O)NC(=O)NC2CCCC2)c1 | 0.116 µM [rising, full curve, poor fit] |  |
| Cc1ccccc1NS(=O)(=O)c1ccc2[nH]cc(C(=O)NC3CCCCC3)c(=O)c2c1 | 23.1 µM [falling, single point] |  |
| CCOc1ccc2nc(NC(=O)c3cccnc3)sc2c1 | 0.731 µM [rising, full curve, poor fit] |  |
| CC(=O)Cc1cc(O)c2ccccc2c1OC(=O)c1ccccc1 |  | 8.91 µM [falling, partial curve, poor fit] |
| Cc1ccnc(NC(=O)c2ccc([N+](=O)[O-])s2)c1 | 12.6 µM [falling, single point] |  |
| Cc1ccc(NC(=O)COS(=O)c2ccc(C)cc2)cc1 (stereo not given) | 4.11 µM [rising, single point] |  |
| CCN(CC)C(=O)[C@H]1C[C@H](CC(=O)NCc2ccc(OC)c(OC)c2)C(=O)N2CCc3c([nH]c4cc(CCC(=O)N(C)C)ccc34)[C@]12C | 29.1 µM [rising, single point] |  |
| CCOC(=O)N1CCC(NC(=O)Cn2ncc3c4ccccc4n(C)c3c2=O)CC1 | 23.1 µM [rising, single point] |  |
| O=C(COC(=O)/C=C/c1cccs1)Nc1nc(-c2ccccc2)cs1 | 13 µM [falling, partial curve, poor fit] |  |
| Cc1c(NC(=O)C(C)N(c2ccccc2)S(C)(=O)=O)c(=O)n(-c2ccccc2)n1C (stereo not given) | 0.447 µM [rising, partial curve, poor fit] |  |
| COc1ccccc1CNC(=O)C1CC(c2cccc([N+](=O)[O-])c2)=NO1 (stereo not given) | 2 µM [falling, partial curve, poor fit] |  |
| O=C(COc1ccccc1[N+](=O)[O-])N/N=C/c1ccc[nH]1 | 17.8 µM [rising, partial curve, poor fit] |  |
| CC1(C)CC(=O)/C(=C(/O)Cc2ccccc2)C(=NCCc2ccccc2)C1 | 6.51 µM [rising, single point] |  |
| CCc1cc(C(=O)NNC(=O)c2csc(N3CCOCC3)n2)sc1C | 29.1 µM [falling, single point] |  |
| CCC1Oc2ccccc2N(CC(=O)NCCCN2CCCCC2CC)C1=O (stereo not given) | 23.1 µM [falling, partial curve, poor fit] |  |
| Cc1ccc(-c2nc(-c3ccccn3)no2)cc1[N+](=O)[O-] | 10 µM [falling, partial curve, poor fit] |  |
| CCCc1nc2ccccc2n1CC(O)COc1ccc(NC(C)=O)cc1 (stereo not given) | 10 µM [rising, partial curve] |  |
| CC1Cc2cc(/C(O)=C3/C(=O)C(=O)N(CCCn4ccnc4)C3c3ccco3)ccc2O1 (stereo not given) | 25.1 µM [rising, single point] |  |

| SMILES | AC50 [1] | AC50 [2] |
| --- | --- | --- |
| O=C(CCCc1ccccc1)NCc1ccc(Cl)cc1 | 2.82 µM [rising, partial curve, poor fit] |  |
| COc1ccc(C(=O)OC(C)C(=O)NCC2CCCCC2)cc1S(=O)(=O)N1CCOCC1 (stereo not given) | 16.4 µM [rising, partial curve, poor fit] |  |
| O=C(NCc1cccnc1)c1cccc(Cl)c1 | 29.1 µM [rising, single point] |  |
| Oc1c(Cl)cc(Cl)cc1/C=N/c1nccs1 | 2.06 µM [rising, partial curve, poor fit] |  |
| Cc1sc(NC(=O)C2CCCCC2)c(C#N)c1-c1ccccc1 | 2.51 µM [rising, full curve, poor fit] |  |
| C(=N\Nc1nc2ccccc2[nH]1)/c1cccc2cccnc12 | 22.4 µM [falling, partial curve, poor fit] |  |
| COc1ccc(/C=N\NC(=O)c2cc3c(ccc4ccccc43)o2)cc1O | 8.91 µM [falling, partial curve] |  |
| NC(=O)c1cc(Cl)ccc1OCC(=O)Nc1ccc2c(c1)OCO2 | 3.26 µM [rising, single point] |  |
| CN(C(=O)Cn1cnc2sccc2c1=O)C1CCCCC1 | 29.1 µM [rising, single point] |  |
| N#CC(=C1CCCC1)c1nc(-c2ccc(Cl)cc2)cs1 | 2.82 µM [rising, partial curve, poor fit] |  |
| O=C(Nc1cccc(S(=O)(=O)N2CCOCC2)c1)c1cn(-c2ccccc2)nc1-c1ccccc1 | 6.51 µM [rising, single point] |  |
| Cc1ccc(/C=N/NC(=O)CSc2nc3ccccc3o2)cc1 | 0.082 µM [rising, full curve, poor fit] |  |
| CCc1ccc(NC(=O)CSc2nnc(COc3ccc4c(c3)CCCC4)o2)cc1 | 20.6 µM [rising, partial curve] |  |
| CCOC(=O)c1nn(-c2ccc(F)cc2)c(C)c1C(C)=O | 0.731 µM [falling, partial curve, poor fit] |  |
| C=CC[n+]1c(-c2ccc(Cl)cc2Cl)csc1Nc1c(C)n(C)n(-c2ccccc2)c1=O | 35.5 µM [falling, single point] |  |
| Cc1c(/C=N/NC(N)=O)c2ccccn2c1C(=O)c1ccncc1 | 3.16 µM [rising, partial curve, poor fit] |  |
| CC(=O)NC12CC3CC(CC(CC(=O)O)(C3)C1)C2 | 0.092 µM [rising, full curve, poor fit] |  |
| CCCc1ccccc1OCCNC(C)=O | 2.59 µM [rising, partial curve] |  |
| CCCCOc1ccc(-c2n[nH]c(=S)n2Cc2ccccc2)cc1 | 17.8 µM [rising, partial curve, poor fit] |  |
| COc1cccc(C(=O)NCC(=O)OCC(=O)NC2CCCCC2)c1 | 29.1 µM [rising, single point] |  |
